# Measured values from the supplement of paper PMC12595434, “Development of retinoid nuclear receptor pathway antagonists through targeting aldehyde dehydrogenase 1A3” (iScience, 2025).
# Amino acid sequences for entries named in this document (tags omitted). A change or cut given only in a name is not applied to a line headed by its entry.
# UniProt Q8WUF8: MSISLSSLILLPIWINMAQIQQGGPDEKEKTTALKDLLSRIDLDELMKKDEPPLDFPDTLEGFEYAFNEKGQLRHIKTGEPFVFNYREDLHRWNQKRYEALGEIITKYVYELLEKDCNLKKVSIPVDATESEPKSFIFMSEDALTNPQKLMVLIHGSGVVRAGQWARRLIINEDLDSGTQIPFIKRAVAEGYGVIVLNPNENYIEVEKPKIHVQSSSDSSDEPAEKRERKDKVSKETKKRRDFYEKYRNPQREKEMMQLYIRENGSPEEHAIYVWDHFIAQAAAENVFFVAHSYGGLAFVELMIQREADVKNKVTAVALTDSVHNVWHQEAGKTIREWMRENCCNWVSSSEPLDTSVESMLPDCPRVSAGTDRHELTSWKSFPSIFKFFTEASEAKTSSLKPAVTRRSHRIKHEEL
# UniProt Q8WUI4: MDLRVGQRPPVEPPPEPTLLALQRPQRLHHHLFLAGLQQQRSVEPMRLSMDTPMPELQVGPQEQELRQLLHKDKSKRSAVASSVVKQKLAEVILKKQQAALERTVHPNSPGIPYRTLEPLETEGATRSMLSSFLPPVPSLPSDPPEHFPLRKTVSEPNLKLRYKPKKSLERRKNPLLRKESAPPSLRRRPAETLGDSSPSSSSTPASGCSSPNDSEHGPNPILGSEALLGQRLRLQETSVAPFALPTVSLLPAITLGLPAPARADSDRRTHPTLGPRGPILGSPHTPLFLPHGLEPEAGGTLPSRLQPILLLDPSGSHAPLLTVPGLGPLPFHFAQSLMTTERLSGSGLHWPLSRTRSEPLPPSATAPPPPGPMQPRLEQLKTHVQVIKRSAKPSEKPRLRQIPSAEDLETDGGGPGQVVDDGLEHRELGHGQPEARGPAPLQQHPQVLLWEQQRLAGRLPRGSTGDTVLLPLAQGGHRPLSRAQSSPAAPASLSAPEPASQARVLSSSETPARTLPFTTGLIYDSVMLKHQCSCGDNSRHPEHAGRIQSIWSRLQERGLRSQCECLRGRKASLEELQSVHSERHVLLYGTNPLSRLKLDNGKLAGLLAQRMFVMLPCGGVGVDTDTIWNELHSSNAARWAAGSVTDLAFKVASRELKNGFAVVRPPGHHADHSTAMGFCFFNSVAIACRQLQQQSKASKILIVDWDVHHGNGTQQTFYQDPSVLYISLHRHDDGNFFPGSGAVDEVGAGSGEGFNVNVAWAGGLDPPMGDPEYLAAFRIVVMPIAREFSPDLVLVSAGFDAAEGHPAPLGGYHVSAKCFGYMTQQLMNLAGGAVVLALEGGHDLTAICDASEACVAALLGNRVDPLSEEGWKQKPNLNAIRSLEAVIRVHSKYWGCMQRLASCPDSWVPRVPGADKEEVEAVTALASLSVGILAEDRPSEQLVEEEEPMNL
# UniProt Q8WVX9: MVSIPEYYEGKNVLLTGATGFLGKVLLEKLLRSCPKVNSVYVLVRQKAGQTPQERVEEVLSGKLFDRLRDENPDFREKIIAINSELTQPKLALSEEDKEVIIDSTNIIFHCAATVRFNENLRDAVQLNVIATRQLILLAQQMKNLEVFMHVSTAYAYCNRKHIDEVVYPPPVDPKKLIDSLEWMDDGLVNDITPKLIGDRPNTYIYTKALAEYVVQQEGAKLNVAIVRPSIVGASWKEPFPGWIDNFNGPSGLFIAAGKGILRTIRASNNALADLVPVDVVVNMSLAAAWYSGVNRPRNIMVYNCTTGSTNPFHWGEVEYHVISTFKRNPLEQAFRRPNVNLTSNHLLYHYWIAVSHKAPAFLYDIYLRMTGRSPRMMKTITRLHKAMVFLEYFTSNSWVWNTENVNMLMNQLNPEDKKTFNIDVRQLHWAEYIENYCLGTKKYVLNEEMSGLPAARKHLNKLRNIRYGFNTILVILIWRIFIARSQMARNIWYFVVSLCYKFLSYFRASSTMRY
# UniProt Q8NC56: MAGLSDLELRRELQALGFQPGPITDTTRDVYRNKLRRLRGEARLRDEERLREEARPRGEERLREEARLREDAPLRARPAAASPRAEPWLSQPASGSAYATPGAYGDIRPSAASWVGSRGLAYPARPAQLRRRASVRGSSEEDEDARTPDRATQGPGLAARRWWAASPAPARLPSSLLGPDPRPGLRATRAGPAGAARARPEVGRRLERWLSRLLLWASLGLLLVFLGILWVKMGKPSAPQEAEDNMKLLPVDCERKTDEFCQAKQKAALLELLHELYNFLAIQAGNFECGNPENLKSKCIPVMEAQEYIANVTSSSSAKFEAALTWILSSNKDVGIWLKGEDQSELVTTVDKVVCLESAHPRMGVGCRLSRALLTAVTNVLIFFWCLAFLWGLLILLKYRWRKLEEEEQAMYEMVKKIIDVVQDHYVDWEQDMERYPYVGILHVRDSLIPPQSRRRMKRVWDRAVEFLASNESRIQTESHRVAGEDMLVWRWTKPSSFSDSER
# UniProt Q8NFD5, whole entry: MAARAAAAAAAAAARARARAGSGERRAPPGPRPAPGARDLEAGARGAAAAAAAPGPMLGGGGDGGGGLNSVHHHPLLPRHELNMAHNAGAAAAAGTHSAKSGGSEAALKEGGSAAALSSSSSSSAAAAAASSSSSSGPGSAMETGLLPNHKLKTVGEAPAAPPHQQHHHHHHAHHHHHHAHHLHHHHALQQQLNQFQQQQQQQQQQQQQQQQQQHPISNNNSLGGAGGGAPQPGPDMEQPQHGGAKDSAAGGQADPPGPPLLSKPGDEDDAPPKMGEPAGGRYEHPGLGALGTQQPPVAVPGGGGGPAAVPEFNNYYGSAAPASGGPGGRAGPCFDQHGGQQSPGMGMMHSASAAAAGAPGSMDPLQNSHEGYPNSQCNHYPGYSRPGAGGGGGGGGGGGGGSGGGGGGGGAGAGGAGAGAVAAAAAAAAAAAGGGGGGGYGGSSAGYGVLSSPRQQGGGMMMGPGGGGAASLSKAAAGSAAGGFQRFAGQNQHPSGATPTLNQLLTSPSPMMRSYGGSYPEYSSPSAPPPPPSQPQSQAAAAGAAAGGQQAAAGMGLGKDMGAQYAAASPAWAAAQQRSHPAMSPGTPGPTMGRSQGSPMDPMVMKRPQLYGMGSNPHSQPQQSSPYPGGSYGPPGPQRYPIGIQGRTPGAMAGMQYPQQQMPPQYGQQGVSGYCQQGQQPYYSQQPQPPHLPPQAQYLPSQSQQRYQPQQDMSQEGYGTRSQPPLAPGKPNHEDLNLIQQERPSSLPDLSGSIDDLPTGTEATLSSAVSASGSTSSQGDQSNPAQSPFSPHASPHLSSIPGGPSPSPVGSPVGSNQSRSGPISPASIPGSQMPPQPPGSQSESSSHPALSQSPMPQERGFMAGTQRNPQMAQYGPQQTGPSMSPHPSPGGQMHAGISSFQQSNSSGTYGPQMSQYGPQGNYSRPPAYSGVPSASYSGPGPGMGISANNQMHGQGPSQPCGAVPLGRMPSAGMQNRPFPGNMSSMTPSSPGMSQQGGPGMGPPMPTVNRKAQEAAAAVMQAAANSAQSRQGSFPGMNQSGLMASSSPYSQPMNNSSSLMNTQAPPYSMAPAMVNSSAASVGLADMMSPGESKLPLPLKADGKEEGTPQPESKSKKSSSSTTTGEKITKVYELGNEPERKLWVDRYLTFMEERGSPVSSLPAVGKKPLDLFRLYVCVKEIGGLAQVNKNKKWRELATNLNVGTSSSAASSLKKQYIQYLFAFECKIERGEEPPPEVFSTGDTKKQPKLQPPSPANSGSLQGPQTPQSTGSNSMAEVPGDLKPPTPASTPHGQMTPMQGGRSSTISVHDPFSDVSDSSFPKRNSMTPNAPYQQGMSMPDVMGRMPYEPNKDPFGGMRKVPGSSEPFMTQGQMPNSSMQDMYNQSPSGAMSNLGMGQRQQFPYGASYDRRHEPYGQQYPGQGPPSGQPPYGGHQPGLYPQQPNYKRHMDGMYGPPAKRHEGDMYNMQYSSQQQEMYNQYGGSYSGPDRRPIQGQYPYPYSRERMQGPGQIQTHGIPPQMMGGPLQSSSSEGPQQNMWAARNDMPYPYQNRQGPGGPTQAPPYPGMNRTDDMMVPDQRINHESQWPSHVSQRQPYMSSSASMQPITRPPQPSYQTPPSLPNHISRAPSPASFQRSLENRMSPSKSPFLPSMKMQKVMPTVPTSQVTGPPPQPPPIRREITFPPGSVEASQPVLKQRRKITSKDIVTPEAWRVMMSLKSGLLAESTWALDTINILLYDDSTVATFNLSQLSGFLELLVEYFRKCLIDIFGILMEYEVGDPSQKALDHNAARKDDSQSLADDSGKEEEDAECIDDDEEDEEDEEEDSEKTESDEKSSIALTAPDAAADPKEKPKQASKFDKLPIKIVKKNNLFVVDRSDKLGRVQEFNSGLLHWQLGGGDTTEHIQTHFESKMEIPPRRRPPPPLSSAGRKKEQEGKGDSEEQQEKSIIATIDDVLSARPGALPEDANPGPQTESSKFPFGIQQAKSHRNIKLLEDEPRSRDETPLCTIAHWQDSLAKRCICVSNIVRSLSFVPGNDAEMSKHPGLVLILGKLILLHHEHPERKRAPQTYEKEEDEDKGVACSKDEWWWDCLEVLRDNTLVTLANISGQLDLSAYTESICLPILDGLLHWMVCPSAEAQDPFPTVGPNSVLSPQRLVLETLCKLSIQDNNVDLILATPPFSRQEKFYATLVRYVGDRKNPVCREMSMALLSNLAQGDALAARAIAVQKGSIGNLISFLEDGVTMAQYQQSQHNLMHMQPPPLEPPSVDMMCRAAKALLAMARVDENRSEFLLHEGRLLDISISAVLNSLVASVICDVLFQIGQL
# UniProt Q8N954: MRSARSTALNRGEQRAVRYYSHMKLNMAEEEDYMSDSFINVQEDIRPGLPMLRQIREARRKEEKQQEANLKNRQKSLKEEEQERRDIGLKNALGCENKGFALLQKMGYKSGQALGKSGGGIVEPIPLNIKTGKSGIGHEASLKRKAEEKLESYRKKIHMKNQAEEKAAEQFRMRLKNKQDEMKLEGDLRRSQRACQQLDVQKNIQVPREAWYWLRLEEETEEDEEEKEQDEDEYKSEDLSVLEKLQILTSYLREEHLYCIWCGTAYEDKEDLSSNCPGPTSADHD
# UniProt Q8TED1: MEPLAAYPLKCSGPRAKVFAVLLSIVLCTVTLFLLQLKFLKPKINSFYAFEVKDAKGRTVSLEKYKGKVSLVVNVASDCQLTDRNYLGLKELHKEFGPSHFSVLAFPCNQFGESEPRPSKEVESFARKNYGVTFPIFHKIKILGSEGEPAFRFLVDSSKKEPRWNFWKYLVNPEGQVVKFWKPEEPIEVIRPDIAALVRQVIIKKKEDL
# UniProt Q8NHX9: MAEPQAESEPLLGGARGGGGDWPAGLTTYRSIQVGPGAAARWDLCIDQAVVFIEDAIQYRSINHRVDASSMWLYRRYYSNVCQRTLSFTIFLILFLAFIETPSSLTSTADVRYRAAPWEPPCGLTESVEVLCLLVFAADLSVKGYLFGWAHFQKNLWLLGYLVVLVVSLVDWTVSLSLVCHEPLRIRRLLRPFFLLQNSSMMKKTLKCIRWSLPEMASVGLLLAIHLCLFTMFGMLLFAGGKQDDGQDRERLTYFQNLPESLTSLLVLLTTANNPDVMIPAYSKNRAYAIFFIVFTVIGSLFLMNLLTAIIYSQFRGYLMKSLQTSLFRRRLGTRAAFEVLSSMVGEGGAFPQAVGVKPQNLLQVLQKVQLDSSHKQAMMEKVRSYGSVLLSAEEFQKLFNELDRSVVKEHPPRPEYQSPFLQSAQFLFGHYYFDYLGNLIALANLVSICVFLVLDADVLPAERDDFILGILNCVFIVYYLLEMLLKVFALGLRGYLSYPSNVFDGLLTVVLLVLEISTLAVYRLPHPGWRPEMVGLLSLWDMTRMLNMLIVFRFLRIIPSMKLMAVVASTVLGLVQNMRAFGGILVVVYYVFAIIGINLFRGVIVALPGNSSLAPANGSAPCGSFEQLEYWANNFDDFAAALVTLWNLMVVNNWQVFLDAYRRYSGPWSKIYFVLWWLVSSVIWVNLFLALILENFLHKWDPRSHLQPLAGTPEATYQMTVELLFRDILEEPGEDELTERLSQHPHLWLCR
# UniProt Q8NB37: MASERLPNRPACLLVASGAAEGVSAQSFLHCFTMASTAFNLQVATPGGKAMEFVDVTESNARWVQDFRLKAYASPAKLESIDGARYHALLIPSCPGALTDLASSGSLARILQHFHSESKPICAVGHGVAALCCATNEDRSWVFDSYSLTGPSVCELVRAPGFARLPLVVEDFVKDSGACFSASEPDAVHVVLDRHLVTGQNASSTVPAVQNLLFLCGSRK
# UniProt Q8TDQ7: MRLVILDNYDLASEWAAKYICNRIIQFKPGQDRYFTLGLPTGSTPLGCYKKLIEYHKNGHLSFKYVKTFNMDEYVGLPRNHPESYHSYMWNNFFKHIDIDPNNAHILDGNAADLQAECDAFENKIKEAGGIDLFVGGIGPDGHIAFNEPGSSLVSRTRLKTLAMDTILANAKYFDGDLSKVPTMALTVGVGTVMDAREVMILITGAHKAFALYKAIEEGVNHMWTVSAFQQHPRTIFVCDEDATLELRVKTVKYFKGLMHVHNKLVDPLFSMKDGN
# UniProt Q8NI22: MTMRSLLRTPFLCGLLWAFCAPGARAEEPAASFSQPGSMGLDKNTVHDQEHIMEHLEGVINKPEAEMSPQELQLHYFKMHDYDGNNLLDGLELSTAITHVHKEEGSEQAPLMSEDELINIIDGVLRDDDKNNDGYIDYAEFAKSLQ
# The list shows a part of the results. Single values of this set are uncertain.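 Many melting curves are irregular; where none melted, Tm was taken as 64 °C.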
# Compound: CCc1cnccc1C(=O)Nc1cc2c(cc1F)NC(=O)CC2
# Experiment: melting temperature shift (DMSO Tm minus MBE1-treated Tm) in cellular thermal proteome profiling; higher = less thermal stabilization by MBE1 (negative = stabilized by MBE1)
# Settings: A375
Target,melting temperature shift (MBE1 concentration: 100 nM),melting temperature shift (MBE1 concentration: 1 uM)
USP32 (UniProt Q8NFA0),-0.536 °C,0.212 °C
FAM172A (UniProt Q8WUF8),0.837 °C,0.623 °C
LSM14A (UniProt Q8ND56),0.128 °C,0.751 °C
UniProt Q8NC54,-4.35 °C,-3.93 °C
HDAC7 (UniProt Q8WUI4),-1.76 °C,-1.53 °C
FAR1 (UniProt Q8WVX9),1.03 °C,0.592 °C
LEMD2 (UniProt Q8NC56),-0.654 °C,0.0944 °C
SLC35B2 (UniProt Q8TB61),-0.527 °C,-1.1 °C
ITFG1 (UniProt Q8TB96),-3.11 °C,0.855 °C
NAV1 (UniProt Q8NEY1),-0.574 °C,-0.719 °C
TMEM263 (UniProt Q8WUH6),-0.843 °C,0.91 °C
SMARCC2 (UniProt Q8TAQ2),-0.205 °C,-0.0769 °C
UniProt Q8NFD5,-0.301 °C,-0.34 °C
GPATCH11 (UniProt Q8N954),0.055 °C,-0.11 °C
TBCK (UniProt Q8TEA7),-0.64 °C,-1.45 °C
NPEPL1 (UniProt Q8NDH3),-3.29 °C,-0.704 °C
GPX8 (UniProt Q8TED1),-0.919 °C,-0.11 °C
TRAF3IP1 (UniProt Q8TDR0),-1.81 °C,-1.12 °C
UniProt Q8NHX9,-1.67 °C,3.53 °C
DENND1A (UniProt Q8TEH3),-0.16 °C,-0.047 °C
UniProt Q8WUD1,-6.25 °C,-3.2 °C
PDDC1 (UniProt Q8NB37),-0.861 °C,-3.39 °C
GNPDA2 (UniProt Q8TDQ7),-2.66 °C,1.68 °C
SCFD2 (UniProt Q8WU76),-1.62 °C,-1.26 °C
MCFD2 (UniProt Q8NI22),-0.116 °C,-0.195 °C

# Single records (already shown):
# UniProt Q8NC54 is entered as melting temperature shift (MBE1 concentration: 100 nM): -4.35 °C; melting temperature shift (MBE1 concentration: 1 uM): -3.93 °C
# SMARCC2 (UniProt Q8TAQ2) is entered as melting temperature shift (MBE1 concentration: 100 nM): -0.205 °C; melting temperature shift (MBE1 concentration: 1 uM): -0.0769 °C
